Reference: PubChem BioAssay AID2685 (National Center for Advancing Translational Sciences (NCATS), 2010)
This is one part of the list. The main result of the screen is listed elsewhere. These columns were measured beside it and carry no call. Most of these compounds were active or inconclusive in the main read-out, so they are no random draw. Potencies come from curve fits of mixed quality, noted in brackets.

Test: qHTS Assay for Lipid Storage Modulators in Drosophila S3 Cells;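 for cell number change: cells counted by Cell Tracker Red CMTPX staining in the red channel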
Conditions: BODIPY lipid droplet fluorescence, 18-24 h; for cell number change: measured here: cell count max response, cells fed with added oleic acid
Summary of the method: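 Drosophila S3 cells got compounds at several concentrations plus oleic acid (400 uM solution). Laser-scanning cytometry with 488 nm excitation read lipid droplets at 500-530 nm and cells at 575-640 nm. Percent activity was relative to 20 uM Triacsin C.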

[1] = measured here: cell number channel AC50, cells fed with added oleic acid
[2] = measured here: lipid fluorescence (Fed channel) AC50, cells fed with added oleic acid

| Structure (SMILES) | cell number change [%] | AC50 [1] | AC50 [2] |
| --- | --- | --- | --- |
| N#C/C(=C\c1ccc2c(c1)OCCO2)C(=O)NC1CCCCC1 | 51.5 | 29.1 µM [rising, single point] | 2.31 µM [falling, partial curve] |
| O=S(=O)(NC1CC2CCC1C2)c1ccc(Br)cc1 (configuration not stated) | -12.4 |  | 3.66 µM [rising, partial curve] |
| Cc1ccc(-c2cc(=O)c3cc(F)ccc3[nH]2)cc1 |  |  | 3.66 µM [falling, full curve, poor fit] |
| CC(CN1CCCCC1)OC(=O)/C=C/c1ccccc1 (configuration not stated) | -32.8 | 10.3 µM [falling, single point] | 7.31 µM [falling, partial curve] |
| COC(=O)c1sc(NC(=O)COc2ccccc2C)nc1C | -0.331 |  |  |
| COc1ccc(S(=O)(=O)N2CCCC2)cc1Br | -19.9 |  | 29.1 µM [rising, single point] |
| CC(CCc1ccccc1)NC(=O)COC(=O)c1cc(NS(=O)(=O)c2ccc(Cl)c([N+](=O)[O-])c2)ccc1O (configuration not stated) | -15.4 |  | 0.184 µM [falling, partial curve, poor fit] |
| COc1ccc(CCNC(=O)COC(=O)c2ccc(OC)cc2OC)cc1 | 84.5 | 14.6 µM [rising, partial curve] |  |
| COc1cc(C(=O)CSc2nccn2C)cc(OC)c1OC | 13.1 |  | 29.1 µM [rising, single point] |
| CC(=O)C1=C(C)NC(C)=C(C(C)=O)C1c1cccs1 | 58.7 | 29.1 µM [rising, single point] |  |
| CCCCOc1ccc(C(=O)NCC(=O)N2CC(C)CC(C)C2)cc1 (configuration not stated) | -27.3 |  | 0.184 µM [falling, single point] |
| CCN(CC)CCNC(=O)c1ccc(NC(=O)Cc2cccc3ccccc23)cc1 | -1.25 |  | 0.00461 µM [rising, full curve, poor fit] |
| CCCCCC(=O)c1c(C)[nH]c(C(=O)OCC)c1C | -39.5 | 16.4 µM [falling, single point] | 29.1 µM [falling, single point] |
| Cn1c(NC(=O)CCc2ccccc2)cc(=O)n(C)c1=O | -11.8 | 1.84 µM [rising, partial curve] | 1.84 µM [rising, partial curve] |
| Cn1c(=O)n(Cc2ccccc2)c(=O)c2c1nc1n2CCCN1CCc1ccccc1 | 31.7 | 29.1 µM [rising, single point] | 4.61 µM [rising, partial curve] |
| COc1ccc(NC(=O)CCCn2cnc3ccccc3c2=O)c(OC)c1 | -14.6 |  |  |
| Cn1c(-c2ccc(-c3ccccc3)cc2)c[nH]c1=S | -31.4 | 14.6 µM [falling, partial curve, poor fit] | 8.2 µM [falling, partial curve, poor fit] |
| COc1ccc(OCC(=O)Nc2ccccc2C(=O)NC(C)C)cc1 | 16.2 |  |  |
| Cc1cc(C)nc(SCC(=O)Nc2ncc(Cc3cccc(Cl)c3)s2)n1 | -37.3 | 29.1 µM [falling, single point] | 32.6 µM [falling, partial curve, poor fit] |

Given with bars between the fields: 7 of the compounds above
Structure (SMILES) | cell number change [%] | AC50 [1] | AC50 [2]
COc1ccc(S(=O)(=O)N2CCCC2)cc1Br | -19.9 |  | 29.1 µM [rising, single point]
CC(CCc1ccccc1)NC(=O)COC(=O)c1cc(NS(=O)(=O)c2ccc(Cl)c([N+](=O)[O-])c2)ccc1O (configuration not stated) | -15.4 |  | 0.184 µM [falling, partial curve, poor fit]
COc1ccc(CCNC(=O)COC(=O)c2ccc(OC)cc2OC)cc1 | 84.5 | 14.6 µM [rising, partial curve] | 
CC(=O)C1=C(C)NC(C)=C(C(C)=O)C1c1cccs1 | 58.7 | 29.1 µM [rising, single point] | 
Cn1c(NC(=O)CCc2ccccc2)cc(=O)n(C)c1=O | -11.8 | 1.84 µM [rising, partial curve] | 1.84 µM [rising, partial curve]
COc1ccc(NC(=O)CCCn2cnc3ccccc3c2=O)c(OC)c1 | -14.6 |  | 
Cn1c(-c2ccc(-c3ccccc3)cc2)c[nH]c1=S | -31.4 | 14.6 µM [falling, partial curve, poor fit] | 8.2 µM [falling, partial curve, poor fit]

Additional entries follow:

| Structure (SMILES) | cell number change [%] | AC50 [1] | AC50 [2] |
| --- | --- | --- | --- |
| COCCNC(=O)NC(=O)CN1CCN(C(c2ccccc2)c2ccccc2)CC1 | 32.7 |  |  |
| CCCc1ccc2c(N)c(C#N)sc2n1 | -0.307 |  | 6.51 µM [rising, single point] |
| CCc1ccc(OC(C)c2nnc(SCC(=O)Nc3ncccc3C)n2C)cc1 (configuration not stated) | 178 | 23.1 µM [rising, partial curve] | 2.31 µM [rising, full curve, poor fit] |
| CCCn1c(=O)c(C(=O)NCc2ccccc2Cl)c(O)c2ccccc21 | 4.01 |  | 29.1 µM [rising, single point] |
| Cc1cccc2cc(CN(Cc3ccco3)C(=O)N3CCCC3)c(=O)[nH]c12 | 10.3 |  | 1.16 µM [rising, full curve] |
| CCCNS(=O)(=O)c1ccc(OCC(=O)N(C)Cc2ccccc2)cc1 | 6.55 |  |  |
| CCOc1ccc(N(CC(=O)NC2CCCCC2)C(=O)CCC(=O)Nc2cc(C)ccn2)cc1 | 6.25 |  |  |
| CNC(=O)COC(=O)c1cc2c(s1)CCCC2 | 22 |  | 0.13 µM [falling, full curve, poor fit] |
| COc1ccc2c(c1OC)C(=O)c1ccccc1C2=O | 29.8 |  | 6.51 µM [rising, partial curve, poor fit] |
| CCN1C(=O)[C@@H]2[C@@H](c3ccc(-c4ccc(Cl)c(Cl)c4)c(OC)c3)N3CCC[C@@]3(C(=O)OC)[C@@H]2C1=O | -6.01 | 6.51 µM [falling, single point] |  |
| COCCn1cc(C(=O)N2CCC(C)CC2)c2c3ccccc3n(C)c2c1=O | -19.6 |  | 7.31 µM [falling, partial curve] |
| CCC(=O)N1CCN(c2nc(C)nc3sc(C)c(C)c23)CC1 | 28.2 |  | 8.2 µM [rising, partial curve] |
| CN1CCN(S(=O)(=O)c2ccc(Sc3nc4ccccc4[nH]3)c3nsnc23)CC1 | 6.75 |  | 8.2 µM [rising, partial curve, poor fit] |
| CCCOc1ccc(N2C(=O)CC(N3CCN(CCN=CC4C(=O)CC(C)(C)CC4=O)CC3)C2=O)cc1 (configuration not stated) | -15.6 |  | 14.6 µM [falling, single point] |
| O=C(O)CCNC(=O)c1ccccc1 | 23.4 | 3.66 µM [rising, full curve, poor fit] | 9.2 µM [falling, partial curve] |
| CCn1cc(-c2ccnc3cc(C(=O)O)nn23)c(C)n1 | 25.3 |  | 2.31 µM [falling, partial curve] |
| CCNC(=S)N(Cc1ccco1)Cc1cc2cc3c(cc2[nH]c1=O)OCCO3 | 18.6 |  | 9.2 µM [rising, single point] |
| CC1CC(C)CN(C(=O)CNC(=O)c2sc3ccccc3c2Cl)C1 (configuration not stated) |  |  | 1.3 µM [falling, full curve] |
| O=C(NCc1cccnc1)Nc1cc(Cl)cc(Cl)c1 | 34.4 |  | 10 µM [falling, partial curve] |
